The assay relates to BDF1 mice, B16 melanoma ip, median survival T/C. Description: NCI In Vivo Anticancer Drug Screen. Data for tumor model B16 Melanoma (intraperitoneal) in B6D2F1 (BDF1) mice. To be noted: T/C endpoint: median survival time, schedule: Q01DX009 (ip), higher T/C = longer survival. A digest of the protocol: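 In this screen, activity was judged from survival or tumor size in treated versus vehicle-treated tumor-bearing mice, reported as T/C.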

[1] abbreviates: dose: 2.0 mg/kg/injection, vehicle: saline.

Molecules are shown by their SMILES. The list does not hold the whole screen: its compounds were picked by chemical class. Not every dose and run of a compound is shown. T/C: endpoint of the treated group in % of that of the vehicle group. Some entries give survivors of the animals treated and no T/C: the source holds a T/C of zero for them, seemingly a mark for toxic or unscored doses. Some survivor counts are full or nearly so, which does not show that the dose was tolerated: survival well below the control is almost never listed, so the zero probably covers shortened survival too. Survivors were counted at the toxicity check, usually on the fifth day, unless a day is given; later deaths do not show. Schedule codes are those of the source, taken here to give the interval after Q, in days (D) or hours (H), and the number of doses after X. Some entries hold several experiments; the results are listed from low to high. Where survival is the endpoint, this PubChem deposit counts one and a half times the control or more as active, and values a quarter to a half above the control carry no call in these data; other NCI protocols may use other cut-offs. Some T/C values carry the count of animals alive at the toxicity check (mostly the fifth day); where neither a count nor a note follows, no animal had died by that day.

Consider `Nc1ccc(N(CCCl)CCCl)cc1`, for which the T/C (dose: 0.13 mg/kg/injection, vehicle: Klucel (hydroxypropylcellulose) (HPC)) is 104 % of control; the T/C (dose: 0.25 mg/kg/injection, vehicle: Klucel (hydroxypropylcellulose) (HPC)) was 93 % of control; the T/C (dose: 0.25 mg/kg/injection, vehicle: saline) is 100 and 114 % of control; the T/C (dose: 0.5 mg/kg/injection, vehicle: Klucel (hydroxypropylcellulose) (HPC)) is 106 % of control; the T/C (dose: 0.5 mg/kg/injection, vehicle: saline) was 125 and 127 % of control [8 of 10 alive]; the T/C (dose: 1.0 mg/kg/injection, vehicle: Klucel (hydroxypropylcellulose) (HPC)) is 124 % of control. For the same molecule, the T/C (dose: 1.0 mg/kg/injection, vehicle: saline) was 139 and 145 % of control; the T/C (dose: 2.0 mg/kg/injection, vehicle: Klucel (hydroxypropylcellulose) (HPC)) was 120 % of control; the T/C under setting [1] is 175 % of control. Moreover, the survivor count is, setting by setting: under setting [1], 10 of 10; (dose: 4.0 mg/kg/injection, vehicle: Klucel (hydroxypropylcellulose) (HPC)) 7 of 8; (dose: 4.0 mg/kg/injection, vehicle: saline) 10 of 10; (dose: 8.0 mg/kg/injection, vehicle: saline) 4 of 10 and 10 of 10.

Take `O=C(CO)Nc1ccc([As](=O)(O)O)cc1`: the T/C runs as follows: (dose: 100.0 mg/kg/injection, vehicle: saline) 99 % of control; (dose: 200.0 mg/kg/injection, vehicle: saline) 100 % of control; (dose: 400.0 mg/kg/injection, vehicle: saline) 98 % of control.

Take `CCCCc1ccc(N(CCCl)CCCl)cc1`: the T/C (dose: 6.25 mg/kg/injection, vehicle: Klucel (hydroxypropylcellulose) (HPC)) was 93 % of control; the T/C (dose: 12.5 mg/kg/injection, vehicle: Klucel (hydroxypropylcellulose) (HPC)) was 98 % of control; the T/C (dose: 25.0 mg/kg/injection, vehicle: Klucel (hydroxypropylcellulose) (HPC)) was 101 % of control [7 of 8 alive]; the T/C (dose: 50.0 mg/kg/injection, vehicle: Klucel (hydroxypropylcellulose) (HPC)) was 102 % of control [7 of 8 alive]; the T/C (dose: 100.0 mg/kg/injection, vehicle: Klucel (hydroxypropylcellulose) (HPC)) is 125 % of control. Also, the survivor count (dose: 200.0 mg/kg/injection, vehicle: Klucel (hydroxypropylcellulose) (HPC)) is on record as 7 of 8.

The record behind these values is PubChem BioAssay AID192 (DTP/NCI, 2004).
